Results are given in words; binding and its absence hold for the method and conditions named. Binding seen in cells or lysates may run through a third protein. Here binding means that the protein was enriched with, or labelled near, the bait; the list need not be complete.
Target: Heat shock factor 1 (human (endogenous in SU-DHL-2, SU-DHL-4, SU-DHL-6)) (UniProt Q00613)
Assay: affinity purification with mass spectrometry; Co-IP from DLBCL cells followed by mass spectrometry of HSF1-binding proteins

Protein sequences, listed by entry. Tags and fused reporters are not part of them.
UniProt Q00613: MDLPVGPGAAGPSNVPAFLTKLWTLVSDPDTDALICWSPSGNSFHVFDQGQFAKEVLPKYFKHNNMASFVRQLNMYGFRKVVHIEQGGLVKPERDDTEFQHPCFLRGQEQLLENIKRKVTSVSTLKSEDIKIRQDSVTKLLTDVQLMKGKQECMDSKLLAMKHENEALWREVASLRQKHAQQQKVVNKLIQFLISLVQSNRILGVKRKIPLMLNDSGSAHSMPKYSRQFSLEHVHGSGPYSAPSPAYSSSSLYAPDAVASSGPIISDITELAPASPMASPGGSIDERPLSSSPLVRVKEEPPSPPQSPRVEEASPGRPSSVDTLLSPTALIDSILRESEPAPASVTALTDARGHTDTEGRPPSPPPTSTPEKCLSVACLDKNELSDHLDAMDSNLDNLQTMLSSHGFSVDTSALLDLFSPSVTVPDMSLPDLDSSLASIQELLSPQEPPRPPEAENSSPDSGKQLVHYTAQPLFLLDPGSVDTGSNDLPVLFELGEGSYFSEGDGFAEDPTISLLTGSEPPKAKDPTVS
UniProt O14744: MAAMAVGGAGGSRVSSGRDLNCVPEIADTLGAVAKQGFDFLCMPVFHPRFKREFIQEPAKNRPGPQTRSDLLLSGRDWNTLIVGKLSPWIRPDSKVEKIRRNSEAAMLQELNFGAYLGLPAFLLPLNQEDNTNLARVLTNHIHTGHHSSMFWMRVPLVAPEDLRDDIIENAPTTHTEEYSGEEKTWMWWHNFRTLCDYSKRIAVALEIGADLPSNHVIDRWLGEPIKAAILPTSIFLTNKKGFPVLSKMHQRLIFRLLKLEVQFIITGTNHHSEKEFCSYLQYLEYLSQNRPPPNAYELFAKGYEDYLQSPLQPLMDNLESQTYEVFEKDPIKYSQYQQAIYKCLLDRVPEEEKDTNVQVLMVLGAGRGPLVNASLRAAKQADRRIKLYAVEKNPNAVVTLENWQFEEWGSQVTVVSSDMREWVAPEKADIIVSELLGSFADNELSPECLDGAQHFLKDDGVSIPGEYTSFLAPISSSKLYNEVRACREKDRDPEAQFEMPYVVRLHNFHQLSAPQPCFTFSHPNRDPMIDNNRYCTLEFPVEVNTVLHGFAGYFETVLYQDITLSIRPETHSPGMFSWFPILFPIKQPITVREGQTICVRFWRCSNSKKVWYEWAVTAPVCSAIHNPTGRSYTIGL

## protein arginine methyltransferase 5 (from UniProt O14744 1-637) (enzyme)
  binding: binds

— PMC12271312
